For the assay, the target named is T1, CD200 (human) (UniProt P41217).
T1 sequence (looked up): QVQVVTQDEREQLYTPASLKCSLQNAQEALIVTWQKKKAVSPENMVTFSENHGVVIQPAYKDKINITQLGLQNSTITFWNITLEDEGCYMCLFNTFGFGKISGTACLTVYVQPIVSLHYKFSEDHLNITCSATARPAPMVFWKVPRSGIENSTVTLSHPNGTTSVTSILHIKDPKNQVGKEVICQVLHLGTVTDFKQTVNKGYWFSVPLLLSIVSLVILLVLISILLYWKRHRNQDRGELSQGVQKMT
In words: flow cytometry, Zenon-Alexa488-labelled C2aB7 on NCI60 cancer cell lines, ratio stained/unstained. (Flow cytometry measures light scatter and fluorescence of single cells or particles in a stream.)

The source of these data is patent US20100285030A1.

These are yes or no findings as the source states them, for the method shown. Some entries that bind do so weakly or less than the wild type.

B1: C2aB7 (antibody, human IgG1, kappa, V domains shown)
VH: EVQLQQSGPELVKPGASLKMSCKASGYSFTDYIILWVKQNHGKSLEWIGHIDPYYGSSNYNLKFKGKATLTVDKSSSTAYMQLNSLTSEDSAVYYCGRSKRDYFDYWGQGTTLTVSS
VL: DIQMTQSPSSMYASLGERVTITCKASQDINSYLSWFQQKPGKSPKTLIYRANRLVDGVPSRFSGSGSGQDYSLTISSLEYEDMGIYYCLQYDEFPYTFGGGTKLEIKR
In the case of B1, the binding result is listed as “binds”.
